From article PMC2629544 come the findings set out here.

No constants are given. Whether binding was seen depends on the method and setting. In cells and extracts the contact can be indirect. For part of these data: A result given as binding can be weak or reduced; the word gives no strength. For part of these data: Tags and fused reporters may be left off the sequences shown.

Assay [1] has as its target Myc-Hipk1, in vitro translated (X. laevis). The assay is described as follows: co-IP; radiolabelled and unlabelled TNT in vitro translation reactions mixed, precipitated with 9e10 anti-Myc antibody cross-linked to Protein A Sepharose; autoradiography.
Assay [2] addresses Myc-Hipk1, expressed in X. laevis embryos (X. laevis). The assay is described as follows: co-IP; extracts of X. laevis embryos injected with synthetic RNAs, lysed at stage 10 (150 mM NaCl, 25 mM Tris pH 7.5, 1% Triton); 9e10 anti-Myc Protein A Sepharose overnight at 4 C; western blot for Dsh-HA. Background: Immunoblotting shows a protein as a band on a membrane.
The target is the same in assay [3]. The assay is described as follows: co-IP; extracts of X. laevis embryos (dorsal or ventral) injected with synthetic RNA for Myc-Hipk1 or Myc-(K/R)Hipk1; 9e10 anti-Myc Protein A Sepharose; western blot for endogenous Tcf3.

B1: 35S-labelled Dsh (Xdsh), in vitro translated (protein, UniProt P51142 1-736)
chain: MAETKVIYHLDEEETPYLVKVPVPATDIRLRDFKAALGRGHAKYFFKAMDQDFGVVKEEISDDNAKLPCFNDRVVSWLASSEGSQPDSAPPAPATEVRPEPPPPVPPPIPPPPAERTSGIGDSRPPSFHPNVSGSTEQLDQDNESVISMRRDRVRRRESSEQAGVGRGVNGRTERHLSGYESSSTLLTSEIETSICDSEEDDTMSRFSSSTEQSSASRLLKRHRRRRKQRPPRLERTSSFSSVTDSTMSLNIITVTLNMEKYNFLGISIVGQSNERGDGGIYIGSIMKGGAVAADGRIEPGDMLLQVNDINFENMSNDDAVRVLRDIVHKPGPIVLTVAKCWDPSPQGYFTLPRNEPIHPIDPAAWVSHSAALSGSFPVYPGSASMSSMTSSTSVTETELSHALPPVSLFSLSVHTDLASVVKVMASPESGLEVRDRMWLKITIPNAFLGSDVVDWLYHHVEGFQDRREARKFASNLLKAGFIRHTVNKITFSEQCYYIFGDLTGCENYMTNLSLNDNDGSSGASDQDTLAPLPLPGASPWPLLPTFSYQYQAPHPYSTQPPAYHELSSYSYGMGSAGSQHSEGSRSSGSNRSDGGRGMQKDDRSGVAGVGGGDSKSGSGSESEYSTRSSIRRVGGGEAGPPSERSTSSRLPPHHPPSVHSYAAPGVPLSYNPMMLMMMPPPPLPPPGVCPPNSSVPPGAPPLVRDLASVPPELTATRQSFHMAMGNPSEFFVDVM
modifications: 35S-Met-labelled
For the molecule B1, in assay [1], the binding result was “binds”.

B2: HA-Dsh, expressed in X. laevis embryos (protein, UniProt P51142 1-736)
chain: MAETKVIYHLDEEETPYLVKVPVPATDIRLRDFKAALGRGHAKYFFKAMDQDFGVVKEEISDDNAKLPCFNDRVVSWLASSEGSQPDSAPPAPATEVRPEPPPPVPPPIPPPPAERTSGIGDSRPPSFHPNVSGSTEQLDQDNESVISMRRDRVRRRESSEQAGVGRGVNGRTERHLSGYESSSTLLTSEIETSICDSEEDDTMSRFSSSTEQSSASRLLKRHRRRRKQRPPRLERTSSFSSVTDSTMSLNIITVTLNMEKYNFLGISIVGQSNERGDGGIYIGSIMKGGAVAADGRIEPGDMLLQVNDINFENMSNDDAVRVLRDIVHKPGPIVLTVAKCWDPSPQGYFTLPRNEPIHPIDPAAWVSHSAALSGSFPVYPGSASMSSMTSSTSVTETELSHALPPVSLFSLSVHTDLASVVKVMASPESGLEVRDRMWLKITIPNAFLGSDVVDWLYHHVEGFQDRREARKFASNLLKAGFIRHTVNKITFSEQCYYIFGDLTGCENYMTNLSLNDNDGSSGASDQDTLAPLPLPGASPWPLLPTFSYQYQAPHPYSTQPPAYHELSSYSYGMGSAGSQHSEGSRSSGSNRSDGGRGMQKDDRSGVAGVGGGDSKSGSGSESEYSTRSSIRRVGGGEAGPPSERSTSSRLPPHHPPSVHSYAAPGVPLSYNPMMLMMMPPPPLPPPGVCPPNSSVPPGAPPLVRDLASVPPELTATRQSFHMAMGNPSEFFVDVM
For B2, in assay [2], the binding result is recorded as “binds”.

B3: endogenous Tcf3 of X. laevis embryos (protein, UniProt P70062 1-554)
chain: MPQLNSGGGDELGANDELIRFKDEGEQEEKSPGEGSAEGDLADVKSSLVNESENHSSDSDSEVERRPPPREAFEKHRDYLTEALRRQQDAAFFKGPPYAGYPFLMIPDLGGHYLPNGALSPSARTYLQMKWPLLDSPSTAGLKDARSPSPAHLSNKVPVVQHPHHMHPLTPLITYSNEHFSPGTPPGHLSPEIDPKTGIPRPPHPSELSPYYPLSPGAVGQIPHPLGWLVPPQGQPMYSIPPGGFRHPYPALAMNASMSSLVSSRFSPHMVPPPHHSLHTSGIPHPAIVSPIVKQEPSSGNISPNLHTKSNMIVKKEEEKKPHIKKPLNAFMLYMKEMRAKVVAECTLKESAAINQILGRRWHSLSREEQAKYYELARKERQLHSQLYPSWSARDNYGKRKKRKREKQSPEMETHTKTKKMCVQHLPADKSCDSPASSHGSMLDSPATPSAALASPAAPAATHSEQAQPLSLTTKPEARAQLSLSHSAAFLASKSPSSSSFSGHLSSPVGSPLLSRPIPLTSSILSPSGVFPSALQALPLLQAQPLSLVTKSSD
Regarding B3, in assay [3], the binding result was “no binding”.
